Experimental data: article PMC4130107
These are yes or no findings as the source states them, for the method shown. In cells and extracts the contact can be indirect. Some entries that bind do so weakly or less than the wild type.

Target: T1, monocarboxylate transporter MCT2 (rat (endogenous in primary hippocampal neurons)) (UniProt Q63344)
T1 sequence: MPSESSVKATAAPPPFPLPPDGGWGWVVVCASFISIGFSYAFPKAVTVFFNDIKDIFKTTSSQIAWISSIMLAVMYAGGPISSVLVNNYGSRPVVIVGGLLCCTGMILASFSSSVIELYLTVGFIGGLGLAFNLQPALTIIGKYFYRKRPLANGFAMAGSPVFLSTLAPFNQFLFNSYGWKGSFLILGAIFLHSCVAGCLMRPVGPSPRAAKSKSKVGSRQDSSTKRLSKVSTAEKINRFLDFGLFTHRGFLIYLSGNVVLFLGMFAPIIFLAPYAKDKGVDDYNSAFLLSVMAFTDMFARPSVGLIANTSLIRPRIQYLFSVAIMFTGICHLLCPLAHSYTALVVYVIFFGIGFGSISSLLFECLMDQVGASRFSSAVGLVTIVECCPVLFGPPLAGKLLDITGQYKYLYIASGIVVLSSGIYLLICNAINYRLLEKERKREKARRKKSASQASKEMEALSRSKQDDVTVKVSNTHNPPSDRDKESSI
Assay: co-IP; MCT2 immunoprecipitated (anti-MCT2 1:50, overnight 4°C, protein A agarose) from homogenate of cultured rat hippocampal neurons in 20 mM Tris HCl, 137 mM NaCl, 10% glycerol, 1% n-octyl-b-D-glucoside, 2 mM EDTA, pH 7.4; Western blot for AQP9

- binding: binds
B1: aquaglyceroporin AQP9 (protein, UniProt P56627 1-295)
chain: MPSEKDGAKKSLMQRLALKSRIAKETLSEFLGTFIMIVLGCSSIAQAVLSRERFGGIITINIGFASAVVMALYVTFGISGGHINPAVSFAMCAFGRMEWFKFPFYVGAQFLGAFVGAATVFGIYYDGLMAFAGGKLLVVGENATAFIFATYPAPFISTPGAFVDQVVSTMFLLLIVFAMFDSRNLGVPRGLEPVVIGLLIIVLSCSLGLNSGCAMNPARDLSPRLFTALAGWGFEVFTVGNNFWWIPVVGPMIGAFLGGLIYILFIQMHHSKLDPDMKAEPSENNLEKHELSVIM
